Consider 1 sequence from publication PMC5132312.

Amino acid sequences for entries named in this document (tags omitted).
UniProt P19338, whole entry: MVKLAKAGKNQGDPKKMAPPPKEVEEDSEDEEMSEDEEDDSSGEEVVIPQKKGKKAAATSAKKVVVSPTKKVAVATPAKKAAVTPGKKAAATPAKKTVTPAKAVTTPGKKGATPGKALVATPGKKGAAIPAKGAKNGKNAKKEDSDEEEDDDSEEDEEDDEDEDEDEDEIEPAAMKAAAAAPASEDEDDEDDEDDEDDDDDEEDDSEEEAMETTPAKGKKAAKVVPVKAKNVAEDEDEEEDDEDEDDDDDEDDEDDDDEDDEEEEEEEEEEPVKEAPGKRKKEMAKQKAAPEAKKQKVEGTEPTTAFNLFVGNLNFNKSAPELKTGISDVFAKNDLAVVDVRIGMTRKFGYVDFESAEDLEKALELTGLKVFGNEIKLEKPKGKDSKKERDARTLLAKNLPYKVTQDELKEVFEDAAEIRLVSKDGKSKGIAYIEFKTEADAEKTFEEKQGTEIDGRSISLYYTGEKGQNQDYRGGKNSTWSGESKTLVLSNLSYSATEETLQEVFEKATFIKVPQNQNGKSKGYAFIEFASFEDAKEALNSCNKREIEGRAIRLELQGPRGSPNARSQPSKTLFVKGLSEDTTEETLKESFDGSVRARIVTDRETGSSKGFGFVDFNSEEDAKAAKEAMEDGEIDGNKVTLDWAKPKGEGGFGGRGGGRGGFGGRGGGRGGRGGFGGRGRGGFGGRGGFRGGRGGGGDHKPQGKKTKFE

The exact form of at least one protein or probe is not confirmed. At least one result comes from cells or an extract, where the contact may be indirect. At least one verdict rests on a figure or table, not on a statement of the authors.

The target of the data set is nucleolin (NCL) (UniProt P19338). Nature of the data set: competition (RNA pull-down). The conditions noted are these: AS1411 antagonizes NCL binding to p53 5'UTR RNA; protein in an extract; folded or branched DNA.

Take GGTGGTGGTGGTTGTGGTGGTGGTGG [AS1411]: the binding result is given as “binds”.
